Measurements as given in paper doi:10.1101/2019.12.18.881763.
Results are given in words; binding and its absence hold for the method and conditions named. Binding seen in cells or lysates may run through a third protein. Some results given as binding are weak or reduced against the parent protein; the word gives no strength.

By UniProt entry, the sequences of proteins in these tests, tags left out.
UniProt Q7JW27: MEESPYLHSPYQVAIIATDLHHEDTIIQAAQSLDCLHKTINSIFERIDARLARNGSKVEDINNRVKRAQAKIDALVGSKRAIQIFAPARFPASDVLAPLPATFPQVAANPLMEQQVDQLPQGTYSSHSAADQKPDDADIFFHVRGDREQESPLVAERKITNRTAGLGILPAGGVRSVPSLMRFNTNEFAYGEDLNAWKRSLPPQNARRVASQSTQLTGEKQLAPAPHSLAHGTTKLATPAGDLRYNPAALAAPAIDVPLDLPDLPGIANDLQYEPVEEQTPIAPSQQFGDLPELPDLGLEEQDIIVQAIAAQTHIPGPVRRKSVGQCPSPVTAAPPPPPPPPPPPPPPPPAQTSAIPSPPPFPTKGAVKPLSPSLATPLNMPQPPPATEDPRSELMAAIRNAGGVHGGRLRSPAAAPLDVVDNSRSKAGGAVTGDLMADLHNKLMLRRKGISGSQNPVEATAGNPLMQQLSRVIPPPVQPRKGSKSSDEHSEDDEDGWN

Key:
Assay in all cases: co-IP
[1] = molecular target: T1, CCDC53 (Drosophila (endogenous in Kc167 cells)) (UniProt Q9VLT8)
T1 sequence: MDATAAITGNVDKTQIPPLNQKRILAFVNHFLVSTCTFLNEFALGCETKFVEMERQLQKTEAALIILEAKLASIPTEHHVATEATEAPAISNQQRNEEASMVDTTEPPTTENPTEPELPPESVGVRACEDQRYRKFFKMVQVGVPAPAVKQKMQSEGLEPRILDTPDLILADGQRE

[2] = molecular target: T2, Lamin B (Drosophila (endogenous in Kc167 cells)) (UniProt P08928)
T2 sequence: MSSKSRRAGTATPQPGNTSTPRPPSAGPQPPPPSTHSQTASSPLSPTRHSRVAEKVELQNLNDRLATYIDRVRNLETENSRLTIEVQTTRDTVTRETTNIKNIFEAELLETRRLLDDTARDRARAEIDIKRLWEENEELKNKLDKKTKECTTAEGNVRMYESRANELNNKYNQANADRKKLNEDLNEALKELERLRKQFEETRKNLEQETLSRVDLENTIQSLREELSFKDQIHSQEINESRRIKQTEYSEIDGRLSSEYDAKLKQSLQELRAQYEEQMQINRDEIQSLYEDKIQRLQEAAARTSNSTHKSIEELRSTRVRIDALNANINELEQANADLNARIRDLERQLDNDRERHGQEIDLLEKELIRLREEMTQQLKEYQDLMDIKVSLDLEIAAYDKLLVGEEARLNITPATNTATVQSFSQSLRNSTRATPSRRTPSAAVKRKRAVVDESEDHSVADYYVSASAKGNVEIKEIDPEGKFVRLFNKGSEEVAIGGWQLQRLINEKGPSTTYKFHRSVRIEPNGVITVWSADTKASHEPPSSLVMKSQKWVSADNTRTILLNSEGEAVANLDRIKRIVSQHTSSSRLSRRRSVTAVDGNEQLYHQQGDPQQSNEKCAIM

[3] = molecular target: T3, Lamin C (Drosophila (endogenous in Kc167 cells)) (UniProt Q03427)
T3 sequence: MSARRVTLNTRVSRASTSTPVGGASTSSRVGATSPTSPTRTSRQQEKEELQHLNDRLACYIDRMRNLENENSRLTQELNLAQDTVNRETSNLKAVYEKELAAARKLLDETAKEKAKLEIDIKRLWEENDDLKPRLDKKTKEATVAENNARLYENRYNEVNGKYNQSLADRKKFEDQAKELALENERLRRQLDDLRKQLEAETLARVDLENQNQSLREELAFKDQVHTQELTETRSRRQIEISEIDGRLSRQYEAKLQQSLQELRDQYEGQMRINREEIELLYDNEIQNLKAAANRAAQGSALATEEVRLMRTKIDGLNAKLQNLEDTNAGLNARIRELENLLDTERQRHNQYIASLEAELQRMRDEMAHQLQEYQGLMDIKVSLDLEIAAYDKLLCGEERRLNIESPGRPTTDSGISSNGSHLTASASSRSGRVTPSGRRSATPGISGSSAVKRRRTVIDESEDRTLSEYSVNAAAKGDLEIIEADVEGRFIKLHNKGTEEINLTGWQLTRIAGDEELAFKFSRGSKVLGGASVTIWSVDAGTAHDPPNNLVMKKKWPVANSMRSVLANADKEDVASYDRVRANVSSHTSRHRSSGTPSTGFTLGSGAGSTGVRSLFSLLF

[4] = molecular target: T4, Strumpellin (Drosophila (endogenous in Kc167 cells)) (UniProt Q9VUY8)
T4 sequence: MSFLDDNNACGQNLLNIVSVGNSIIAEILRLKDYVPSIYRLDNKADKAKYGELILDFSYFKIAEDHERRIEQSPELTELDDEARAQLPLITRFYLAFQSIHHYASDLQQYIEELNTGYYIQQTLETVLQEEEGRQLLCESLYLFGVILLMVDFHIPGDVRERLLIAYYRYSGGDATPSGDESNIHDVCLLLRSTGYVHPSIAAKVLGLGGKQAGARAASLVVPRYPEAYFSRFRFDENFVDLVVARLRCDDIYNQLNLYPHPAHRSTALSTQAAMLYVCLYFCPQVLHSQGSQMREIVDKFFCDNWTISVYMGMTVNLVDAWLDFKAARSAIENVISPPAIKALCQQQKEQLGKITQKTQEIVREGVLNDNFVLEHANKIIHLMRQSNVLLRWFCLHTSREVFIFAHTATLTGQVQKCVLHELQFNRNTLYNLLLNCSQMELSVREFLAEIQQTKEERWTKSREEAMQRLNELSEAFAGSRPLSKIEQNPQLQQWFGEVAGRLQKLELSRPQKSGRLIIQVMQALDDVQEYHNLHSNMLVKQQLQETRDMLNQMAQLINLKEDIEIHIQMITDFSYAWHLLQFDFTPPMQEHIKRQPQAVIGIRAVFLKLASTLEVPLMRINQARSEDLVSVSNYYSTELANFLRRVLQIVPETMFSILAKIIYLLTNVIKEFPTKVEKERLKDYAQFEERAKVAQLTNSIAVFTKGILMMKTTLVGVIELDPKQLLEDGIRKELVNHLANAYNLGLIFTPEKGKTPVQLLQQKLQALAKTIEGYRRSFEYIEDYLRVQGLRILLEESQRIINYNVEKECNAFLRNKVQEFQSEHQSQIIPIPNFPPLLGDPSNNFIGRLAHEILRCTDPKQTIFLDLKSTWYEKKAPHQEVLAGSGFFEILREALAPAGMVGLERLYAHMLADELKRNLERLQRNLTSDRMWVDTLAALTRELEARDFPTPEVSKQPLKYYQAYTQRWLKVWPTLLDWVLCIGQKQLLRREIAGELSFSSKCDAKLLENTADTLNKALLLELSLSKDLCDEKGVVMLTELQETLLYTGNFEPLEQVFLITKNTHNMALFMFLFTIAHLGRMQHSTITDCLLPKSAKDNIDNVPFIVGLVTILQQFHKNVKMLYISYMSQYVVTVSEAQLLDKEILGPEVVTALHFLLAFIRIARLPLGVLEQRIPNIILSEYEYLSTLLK

[5] = molecular target: Wash (Drosophila (endogenous in Kc167 cells)) (UniProt Q7JW27)

B1: FAM21 (protein, UniProt A1ZBW7 1-1469)
chain: MDISADVDQIIAQAPDWTFAGDCALLALMKRISQNLEERGERTSRNLRDFETSVKQVDIALNNATTSLRSLQFGNQFVEYRVEEVDDADLAMPEEKKKKPELPLKSSEELAKEFLENNLRMFRKNYEPVTIEVPDSDDEDGPVHSTTVFRAKNPYDAIPLPYIIGTKEWQEHKYAGLYDSKENSEDDRSEEFSSSSSDEKEPETKKIATPANKLEEQHLSDSSSLASFAREPAIVSPVINPAVQVAEPVIRTQPRPIINSQRNPHERDMFAALRQSPPSDDPPSTSSSPTSSPAFRNPSSRLPIVSTASLSSSSSSPAQQPPRLFDEAVSTQTPKEAEIKPSQTKRMPVNLFNEDEFKSFMSEIVDKVQSKTPSSSVSPATTISTKEPPKTKKPVEEYPKPGPPKQIVEQTVPKRVNLFDDSPPLSPTPRSEPVFNNTKATGAIPKRSPVVVANNDEDNSLFGSSPAMPKENPSKKPPKPVTKSLFDDDLEDDDFLSSFTPKAKPPEQKLLSKPKPSLFDDDDLDIDDIFTKPSAQPKKLSERVAGKTSLFEDDDQDDVTDLFGSKKAKVIPKETSSGVSPNKNVETPVASKKSLFDDIEDEDLFGTPKAKNLIRSEPDNDPEAVGEDKKQSEIAEQKSKNIETGEKQHQVIAENASVPILRDSPPPMEVTEQKSDDKEWEAVKDDTSAANITKSKDLFSEDLTDDELFSSTSNNMAEPKSANETNEFNKPIEKYTSQTEENVSPVNPPTKLSIKPTDLFNEDFSDDDTFLSASMSKNEPLVGTENEDIKKPSEVQLVKEIKAEELPQQLPENKIYEITAVVEKDELVPEMLSKPQIDEPVSETPPPDDYQSNVDPIISMVADVTNKTSVDTLTPRKPADLAAAQQIMQNYSNLFSDEPPDDSEFFQTLGSSGLSSLSASKIFDNEHDFFEPALPNIPSATKPSPVTPGDQPSVSSDYGAMCLFSDVPPEDNDHAGEEVQKEAEPQKDELASTTRIHTIFYDDFSETARAGAVQPAPKRFPFDDEPPPADETDRSEVKETPELQKPTSPVKKLKMPNININVHALLPGSGSVPKLIRKQESSSSERDEPQATVQTEAEAPSSGQNTVSSADGVLQHVNKSRARGPAKRRPSTRRGRKENYAKSLLDAGQNEGPTASTRDSPEVEHSERSSIKAPSPQYVKPEKLFSTPAQQIQPQLQRPPPSNTGGSFLDSPDEDDSFFNSVPTKTVEGKQGTDPPKSYRSFLDSPDADDKLFSDLENNKAGINVVPVEKKPPKMANSFLASPDEDDFLFDSVKTNATTTAQKAFAAEIMNAFQKVTTAPPKPSNAKEAAKPKSQAAPKLFDDSDDDDDDLFARAPSIQTASKPVQAKQPPKPAATSLFSSDDEEAEVPVKSAPAKKLPVKPSKSLFSDDDDDDDLFGGSSTSKAAAAKKTKPAARTASKPPASKTTTPTATIPSNSGDNPLADLLDFK
[1]
  binding: binds
[2]
  binding: no binding
[3]
  binding: no binding
[4]
  binding: binds
[5]
  binding: binds
